Measurements reported in publication PMC9475553, “SHF Acts as a Novel Tumor Suppressor in Glioblastoma Multiforme by Disrupting STAT3 Dimerization” (Advanced Science, 2022).
No constants are given. Whether binding was seen depends on the method and setting. Some results given as binding are weak or reduced against the parent protein; the word gives no strength.

Amino acid sequences for entries named in this document (tags omitted). Residues count along the entry.
UniProt Q7M4L6, residues 388-421: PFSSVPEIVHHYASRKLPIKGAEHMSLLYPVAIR
UniProt P40763: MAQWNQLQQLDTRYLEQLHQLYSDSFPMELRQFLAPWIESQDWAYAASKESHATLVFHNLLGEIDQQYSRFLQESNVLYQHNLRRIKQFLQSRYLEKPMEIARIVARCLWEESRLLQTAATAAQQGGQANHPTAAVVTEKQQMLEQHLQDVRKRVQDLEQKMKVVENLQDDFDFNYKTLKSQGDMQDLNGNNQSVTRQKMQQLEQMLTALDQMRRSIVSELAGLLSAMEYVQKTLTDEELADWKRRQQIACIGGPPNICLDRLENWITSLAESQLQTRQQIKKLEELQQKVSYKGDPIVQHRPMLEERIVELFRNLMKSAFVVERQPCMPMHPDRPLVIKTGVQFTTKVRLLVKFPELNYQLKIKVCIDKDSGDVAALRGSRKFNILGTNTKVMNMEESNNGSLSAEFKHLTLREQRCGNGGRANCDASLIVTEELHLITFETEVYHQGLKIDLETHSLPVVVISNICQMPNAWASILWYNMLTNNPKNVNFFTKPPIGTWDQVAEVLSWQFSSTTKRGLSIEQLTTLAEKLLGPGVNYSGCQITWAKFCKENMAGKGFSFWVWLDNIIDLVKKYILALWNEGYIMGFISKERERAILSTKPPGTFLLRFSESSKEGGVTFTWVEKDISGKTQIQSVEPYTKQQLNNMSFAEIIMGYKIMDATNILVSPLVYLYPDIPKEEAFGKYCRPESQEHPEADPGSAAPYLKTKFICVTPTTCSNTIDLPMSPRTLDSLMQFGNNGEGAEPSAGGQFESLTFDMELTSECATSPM

Molecular target: C16 peptide (derived from the STAT3-binding sites of SHF) (human) (UniProt Q7M4L6)
Experiment: pull-down; GST-STAT3 incubated with C16 or SC for 2 h, pull-down with Anti-His magnetic beads; both purified

binding: binds
Substance: GST-STAT3 (from UniProt P40763 1-770)
